From patent US20240217950A1, “PESTICIDALLY ACTIVE CYCLIC AMINE COMPOUNDS” (SYNGENTA CROP PROTECTION AG, priority 2021, published 2024)
Some results were stated once for a whole list of compounds, not compound by compound.

Tested on: Tetranychus urticae (Two-Spotted Spider Mite)
Assay: Tetranychus urticae (two-spotted spider mite) feeding/contact activity on bean leaf discs
Format: in vivo
Details: application rate of 200 ppm; sprayed bean leaf discs; mixed population (mobile stages); 8 days after infestation
Description: Example B1: Tetranychus urticae (Two-Spotted Spider Mite)
Feeding/contact activity Bean leaf discs on agar in 24-well microtiter plates were sprayed with aqueous test solutions prepared from 10′000 ppm DMSO stock solutions. After drying the leaf discs were infested with a mite population of mixed ages. The samples were assessed for mortality on mixed population (mobile stages) 8 days after infestation.

Structure (SMILES)	mortality
COCc1nc(OCc2cc(C(F)(F)F)ccc2F)c(C#N)cc1C(=O)N1CCC(c2ncn(C)n2)CC1 [Compound P1.1]	at least 80%
COCCC1CCN(C(=O)c2cc(C#N)c(OCc3cc(F)c(F)cc3F)nc2COC)CC1 [Compound P1.18]	at least 80%
COCc1nc(OCc2cc(F)c(F)cc2F)c(C#N)cc1C(=O)N1CCC(c2noc(C)n2)CC1 [Compound P1.31]	at least 80%
COCc1nc(OCc2ccc(F)c(F)c2)c(C#N)cc1C(=O)N1CCC(c2noc(C)n2)CC1 [Compound P1.32]	at least 80%
COCc1nc(OCc2ccc(Cl)cc2F)c(C#N)cc1C(=O)N1CCC(c2noc(C)n2)CC1 [Compound P1.34]	at least 80%
COCc1nc(OCc2ccc(Br)cc2F)c(C#N)cc1C(=O)N1CCC(c2noc(C)n2)CC1 [Compound P1.36]	at least 80%
COCc1nc(OCc2ccc(Cl)c(Br)c2)c(C#N)cc1C(=O)N1CCC(c2noc(C)n2)CC1 [Compound P1.37]	at least 80%
COCc1nc(OCc2cc(Br)ccc2Cl)c(C#N)cc1C(=O)N1CCC(c2noc(C)n2)CC1 [Compound P1.38]	at least 80%
COCc1nc(OCc2ccc(Br)c(Cl)c2)c(C#N)cc1C(=O)N1CCC(c2noc(C)n2)CC1 [Compound P1.39]	at least 80%
COCc1nc(OCc2ccc(Br)cc2)c(C#N)cc1C(=O)N1CCC(c2noc(C)n2)CC1 [Compound P1.40]	at least 80%
COCc1nc(OCc2ccc(Br)c(F)c2)c(C#N)cc1C(=O)N1CCC(c2ccn(C)n2)CC1 [Compound P1.41]	at least 80%
COCc1nc(OCc2ccc(OC)cc2F)c(C#N)cc1C(=O)N1CCC(c2noc(C)n2)CC1 [Compound P1.43]	at least 80%
COCc1nc(OCc2cc(Cl)ccc2F)c(C#N)cc1C(=O)N1CCC(c2ccn(C)n2)CC1 [Compound P1.44]	at least 80%
COCc1nc(OCc2ccc(I)cc2)c(C#N)cc1C(=O)N1CCC(c2noc(C)n2)CC1 [Compound P1.46]	at least 80%
COCc1nc(OCc2cc(Br)ccc2Cl)c(C#N)cc1C(=O)N1CCC(c2ccn(C)n2)CC1 [Compound P1.47]	at least 80%
COCc1nc(OCc2ccc(Cl)cc2F)c(C#N)cc1C(=O)N1CCC(c2ccn(C)n2)CC1 [Compound P1.48]	at least 80%
COCc1nc(OCc2ccc(C(F)F)cc2)c(C#N)cc1C(=O)N1CCC(c2noc(C)n2)CC1 [Compound P1.49]	at least 80%
COCc1nc(OCc2ccc(F)cc2Br)c(C#N)cc1C(=O)N1CCC(c2noc(C)n2)CC1 [Compound P1.51]	at least 80%
COCc1nc(OCc2cc(F)c(F)cc2Cl)c(C#N)cc1C(=O)N1CCC(c2noc(C)n2)CC1 [Compound P1.52]	at least 80%
COCc1nc(OCc2cc(F)c(F)cc2Br)c(C#N)cc1C(=O)N1CCC(c2noc(C)n2)CC1 [Compound P1.53]	at least 80%
COCc1nc(OCc2cc(Cl)ccc2Br)c(C#N)cc1C(=O)N1CCC(c2noc(C)n2)CC1 [Compound P1.56]	at least 80%
COCc1nc(OCc2cc(F)c(F)cc2F)c(C#N)cc1C(=O)N1CCC(c2ccn(C)n2)CC1 [Compound P1.59]	at least 80%
COCc1nc(OCc2cc(Cl)ccc2F)c(C#N)cc1C(=O)N1CCC(N2CCN(C)S2(=O)=O)CC1 [Compound P1.60]	at least 80%
COCc1nc(OCc2cc(Br)ccc2Cl)c(C#N)cc1C(=O)N1CCC(N2CCN(C)S2(=O)=O)CC1 [Compound P1.61]	at least 80%
COCc1nc(OCc2ccc(Cl)cc2F)c(C#N)cc1C(=O)N1CCC(N2CCN(C)S2(=O)=O)CC1 [Compound P1.62]	at least 80%
COCc1nc(OCc2ccc3c(c2)OC(F)(F)O3)c(C#N)cc1C(=O)N1CCN(c2ncc(Cl)cc2Cl)CC1 [Compound P2.1]	at least 80%

Structure (SMILES)	mortality
COCc1nc(OCc2ccc3c(c2)OC(F)(F)O3)c(C#N)cc1C(=O)N1CCN(S(=O)(=O)C(C)C)CC1 [Compound P2.2]	at least 80%
CNS(=O)(=O)N1CCN(C(=O)c2cc(C#N)c(OCc3ccc4c(c3)OC(F)(F)O4)nc2COC)CC1 [Compound P2.3]	at least 80%
CCNS(=O)(=O)N1CCN(C(=O)c2cc(C#N)c(OCc3ccc(Br)c(F)c3)nc2COC)CC1 [Compound P2.4]	at least 80%
CCNS(=O)(=O)N1CCN(C(=O)c2cc(C#N)c(OCc3cc(F)c(F)cc3F)nc2COC)CC1 [Compound P2.5]	at least 80%
CCNS(=O)(=O)N1CCN(C(=O)c2cc(C#N)c(OCc3cc(Cl)ccc3F)nc2COC)CC1 [Compound P2.6]	at least 80%
CCNS(=O)(=O)N1CCN(C(=O)c2cc(C#N)c(OCc3ccc(Cl)cc3F)nc2COC)CC1 [Compound P2.7]	at least 80%
CCCS(=O)(=O)N1CCN(C(=O)c2cc(C#N)c(OCc3cc4c(cc3Cl)OC(F)(F)O4)nc2COC)CC1 [Compound P2.8]	at least 80%
CCCS(=O)(=O)N1CCN(C(=O)c2cc(C#N)c(OCc3ccc(Br)c(F)c3)nc2COC)CC1 [Compound P2.9]	at least 80%
CCCS(=O)(=O)N1CCN(C(=O)c2cc(C#N)c(OCc3ccc4c(c3)OC(F)(F)O4)nc2COC)CC1 [Compound P2.10]	at least 80%
CCNS(=O)(=O)N1CCN(C(=O)c2cc(C#N)c(OCc3cc(Br)ccc3Cl)nc2COC)CC1 [Compound P2.11]	at least 80%
COCc1nc(OCc2nc3ccccc3cc2Cl)c(C#N)cc1C(=O)N1CCC(c2noc(C)n2)CC1 [Compound P6.1]	at least 80%
COCc1nc(OCc2cnc(Cl)cc2Cl)c(C#N)cc1C(=O)N1CCC(c2noc(C)n2)CC1 [Compound P6.3]	at least 80%
COCc1nc(OCc2ccc3nonc3c2)c(C#N)cc1C(=O)N1CCC(c2noc(C)n2)CC1 [Compound P6.4]	at least 80%
COCc1nc(OCc2cc(C3CC3)no2)c(C#N)cc1C(=O)N1CCC(c2noc(C)n2)CC1 [Compound P6.7]	at least 80%
COCc1nc(OCc2ncc(Cl)s2)c(C#N)cc1C(=O)N1CCC(c2noc(C)n2)CC1 [Compound P6.11]	at least 80%
COCc1nc(OCc2ccc3ccc(Cl)cc3n2)c(C#N)cc1C(=O)N1CCC(c2noc(C)n2)CC1 [Compound P6.16]	at least 80%
COCc1nc(OCc2cnc(Cl)c(F)c2)c(C#N)cc1C(=O)N1CCC(c2noc(C)n2)CC1 [Compound P6.21]	at least 80%
COCc1nc(OCc2ccc3scnc3c2)c(C#N)cc1C(=O)N1CCC(c2noc(C)n2)CC1 [Compound P6.24]	at least 80%
COCc1nc(OCc2nc3cc(Cl)ccc3s2)c(C#N)cc1C(=O)N1CCC(c2noc(C)n2)CC1 [Compound P6.31]	at least 80%
COCc1nc(OCc2ccc(Br)nc2)c(C#N)cc1C(=O)N1CCC(c2noc(C)n2)CC1 [Compound P6.37]	at least 80%
COCc1nc(OCc2nc3cc(Br)ccc3n2C)c(C#N)cc1C(=O)N1CCC(c2noc(C)n2)CC1 [Compound P6.38]	at least 80%
COCc1nc(OCc2cc3nc(Cl)c(Cl)nc3cc2F)c(C#N)cc1C(=O)N1CCC(c2noc(C)n2)CC1 [Compound P6.41]	at least 80%
COCc1nc(OCc2nc3cc(Cl)ccn3c2Cl)c(C#N)cc1C(=O)N1CCC(c2noc(C)n2)CC1 [Compound P6.50]	at least 80%
COCc1nc(OCc2ccc3nonc3c2)c(C#N)cc1C(=O)N1CCC(N2CCN(C)S2(=O)=O)CC1 [Compound P6.51]	at least 80%
COCc1nc(OCc2ccc3nonc3c2)c(C#N)cc1C(=O)N1CCC(c2ccn(C)n2)CC1 [Compound P6.52]	at least 80%
CCNS(=O)(=O)C1CCN(C(=O)c2cc(C#N)c(OCc3ccc4nonc4c3)nc2COC)CC1 [Compound P6.53]	at least 80%
